Laboratory results reported in the supplement of paper PMC5949888.
Most values lie at the floor of the assay. Slopes are relative: functional sequences can read slightly below zero.

What follows are substances tested on Saccharomyces cerevisiae PS128 hsf1 delta, HSF1(1-493) fusion (assay: growth estimate (transactivation domain function in HSF1 fusion, heat-shock survival) (a.u. (slope of normalised read count over time)); higher = stronger growth at 37°C, i.e. more transactivation activity). Settings: library: random library.
Method: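 Random 60-nt DNA library encoding peptides of up to 20 aa, fused to the C-terminus of yeast HSF1 residues 1-493 (C-terminal TAD deleted) and expressed from the native HSF1 promoter on a CEN plasmid in hsf1-deleted S. cerevisiae PS128. Cells were selected at 37°C on -trp 5-FOA plates for 0, 2, 4, 6 and 8 days and amplicons were sequenced. Growth estimate is the slope of a robust linear fit of total-sum-normalised read counts (normalised to the first time point) over time, using at least 2 replicates. Sequences are classed functional (TAD activity) above a threshold of -0.13, set from stop-codon control sequences.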
In the case of ARLSKYSHQAHVLRPWSSDP, the growth estimate is reported as < -0.25. With LTAVIGLT the growth estimate was < -0.25. In the case of SSHRRAAVRPSVCLADVGKI, the growth estimate is reported as < -0.25. PPRS was tested, and the growth estimate was < -0.25. With YVMTGSIVDKRSVSRDWANC the growth estimate was -0.25. With LRAEPS the growth estimate was < -0.25. With GGVYSPFGNGLFYHNYSLLS the growth estimate was < -0.25. For VLSIIWF, the growth estimate was < -0.25. For GLWVTRFS, the growth estimate was < -0.25. VGGSSQFVNERQ was tested, and the growth estimate was < -0.25. For RRSSNNRSTAIRTQPRIIAV, the growth estimate was < -0.25. In the case of SNIRLSGAPSGNRYSYIVAP, the growth estimate is reported as < -0.25. With GSCTIWWWLLAPRLISIRLH the growth estimate was < -0.25. WEFASRLGSI was tested, and the growth estimate was < -0.25. SLDW was tested, and the growth estimate was < -0.25. With WNVPIAQKNDAIG the growth estimate was < -0.25. In the case of TAEDLTASKRSVAILSTTSV, the growth estimate is reported as < -0.25. With NAGLNR the growth estimate was < -0.25. With GYIGTAGLW the growth estimate was < -0.25. For YWLTRGVW, the growth estimate was < -0.25. With AVVGRKCYSRGMVQRYIMLV the growth estimate was < -0.25. For EGSRGAHSRSIRRSRYALKL, the growth estimate was < -0.25. In the case of KTL, the growth estimate is reported as < -0.25. With IGSNVG the growth estimate was < -0.25. With RDDFEEVQLSLAQARLKKPT the growth estimate was < -0.25. With EPSNSAIGKSSTQTSMVTLP the growth estimate was < -0.25. In the case of GRKG, the growth estimate is reported as < -0.25. For SIWHKWTDLICAC, the growth estimate was < -0.25. In the case of FAEVAHGSRTIAGSIA, the growth estimate is reported as < -0.25. With DHLRVGAFMGAIYCQGRFKS the growth estimate was < -0.25. With KGNVRNTKNPKY the growth estimate was < -0.25. PETFRDGVNLLELDRISKFS was tested, and the growth estimate was < -0.25. In the case of VVGHHAYSPGACSF, the growth estimate is reported as < -0.25. For SQISQLAVIKNEYKIAATHW, the growth estimate was < -0.25. In the case of GGLSWLTKRVAGWPGPISWQ, the growth estimate is reported as -0.246. CLFTESVTPMESSWYLGHIG was tested, and the growth estimate was < -0.25. With FPLIMRCVIRKFTITTTIQS the growth estimate was < -0.25. In the case of WTGAGPGIGSCGSPFKSAAL, the growth estimate is reported as < -0.25. With LRVRAMPYQVSGLRVNSDSL the growth estimate was < -0.25. In the case of QVNLQGGVTG, the growth estimate is reported as < -0.25. AEECYIGRAREPQWVLSQAL was tested, and the growth estimate was < -0.25. In the case of VCPFDNGGCKTVSKEMDRAF, the growth estimate is reported as -0.245. EGPSAPEVSRGLLIERLLAC was tested, and the growth estimate was < -0.25. LPDPFAVGYARPGHELVP was tested, and the growth estimate was < -0.25. With PDYVVRCLFSSRLQSPGHSI the growth estimate was < -0.25. In the case of SILTVGSHLI, the growth estimate is reported as < -0.25. With GGVAHREAKGVDEFMRVCAV the growth estimate was < -0.25. For RTLALKQSKYVSQSWYNSAS, the growth estimate was < -0.25. With GKRTSFFTSKGGALFKGRRH the growth estimate was < -0.25. For GRKKGFRKPGTTVCRTDEVS, the growth estimate was < -0.25. CRAVWQPMC was tested, and the growth estimate was < -0.25. In the case of LKDGRCRLAFQLYLGPRAPG, the growth estimate is reported as < -0.25. With LPPHPRNLSGS the growth estimate was < -0.25. With VSRSGFTFTG the growth estimate was < -0.25. SVHRTG was tested, and the growth estimate was < -0.25. VLPRVWRVSATGNPHRMVIR was tested, and the growth estimate was < -0.25. With TQQYEHSPACACYLRGN the growth estimate was < -0.25. With GVH the growth estimate was < -0.25. LAGGKFVELSNGSVGERPIF was tested, and the growth estimate was < -0.25. With RPGLCYHRV the growth estimate was < -0.25. With RFE the growth estimate was < -0.25. In the case of PWNITNGVSLCHSELNGQGP, the growth estimate is reported as < -0.25. With ARIPRQLPFLPKIGTYIIQD the growth estimate was < -0.25. For CIQPRKTIGVGLIRISHRAP, the growth estimate was < -0.25. GAGVGSSPWVS was tested, and the growth estimate was -0.215. For APDWFGLRCRPLWITVPYGA, the growth estimate was < -0.25. With TNW the growth estimate was < -0.25. For PLSSQIDRYYKSVLGPVYSG, the growth estimate was -0.241. For RKTHLRRR, the growth estimate was < -0.25. With GSVCHNRELFGTAYDKGAKA the growth estimate was < -0.25. DAFSLAQSARGG was tested, and the growth estimate was < -0.25. With CNWGP the growth estimate was < -0.25. In the case of RKTLHY, the growth estimate is reported as < -0.25. In the case of HRLLTMIIHRSGRHYNVYKI, the growth estimate is reported as < -0.25. For RGLNARRRRLDAGQVLVGIL, the growth estimate was < -0.25. For YLIIPAR, the growth estimate was < -0.25. In the case of TQGEIREFLRD, the growth estimate is reported as < -0.25. IRVTILQKLSLSTLT was tested, and the growth estimate was < -0.25. For FDW, the growth estimate was 0.181. In the case of PHPPLVPSKALR, the growth estimate is reported as < -0.25. With FRTD the growth estimate was -0.23. In the case of LLCPTQG, the growth estimate is reported as < -0.25. With VTVYPYWCHRLKPV the growth estimate was < -0.25. LGPARYATRARSGRVWHVSA was tested, and the growth estimate was < -0.25. For CTKSEHLESGSK, the growth estimate was < -0.25. With NRSFVYRGLF the growth estimate was < -0.25. With PCTGAYSTCSVMEL the growth estimate was < -0.25. With HMKQIVKSPRKPSEGKTARH the growth estimate was < -0.25. TVGG was tested, and the growth estimate was < -0.25. QYRCHLDIDGKAPLNGADPQ was tested, and the growth estimate was < -0.25. With DPGAEGG the growth estimate was < -0.25. GPAEKVSAGLIVSG was tested, and the growth estimate was < -0.25. STGESCKR was tested, and the growth estimate was < -0.25. With RHLLYPARHQGIVLRTRTAH the growth estimate was < -0.25. DTASWSAGFTGSAGFFKPLG was tested, and the growth estimate was < -0.25. With SKHQTFDYPPVAARSLSLHS the growth estimate was < -0.25. For RSKGRRFNRSPRPMTALFPQ, the growth estimate was < -0.25. In the case of TVGSNQLRRASWGLFNRTGG, the growth estimate is reported as -0.231. In the case of LRQHRLNVTVTS, the growth estimate is reported as < -0.25. PLTCTLVERDTPGCKDPPVN was tested, and the growth estimate was < -0.25. TYGFFVIEDQNGT was tested, and the growth estimate was < -0.25. RACTFR was tested, and the growth estimate was < -0.25. In the case of ISGLVQNRQL, the growth estimate is reported as < -0.25. VPLTDESGCAGTENILGANK was tested, and the growth estimate was < -0.25. For IPKNEDRRPEHEYRTLVVAS, the growth estimate was < -0.25. SMEFWHVNSVSK was tested, and the growth estimate was < -0.25. In the case of SERITPCRAGGCLPLPNCAP, the growth estimate is reported as < -0.25. With RTGRVSRVRSRLSSSDGRQR the growth estimate was < -0.25. For CGRVWVYVGPTATDLPAGDP, the growth estimate was < -0.25. With AIISRGGDRHR the growth estimate was < -0.25. With SITKQEQFVQSPAVPGVATR the growth estimate was < -0.25. For SLHGGWYNHKSKDLHLLGGS, the growth estimate was < -0.25. With RDVRVVQ the growth estimate was < -0.25. With ITVLVSAVIPRLQKDTVRRL the growth estimate was < -0.25. In the case of SHKHRPGSRKTPRALQQQTY, the growth estimate is reported as < -0.25. With SLQTLLNPSLNVLRFRVISH the growth estimate was < -0.25. With SAVKCVNVQLNLWIRHGSKL the growth estimate was < -0.25. In the case of RGHFDVM, the growth estimate is reported as < -0.25. In the case of HMQFQRVLGPIVTAYWATSA, the growth estimate is reported as < -0.25. In the case of VMGDFIF, the growth estimate is reported as 0.0195. For KRAIGSNDLEISILRSGVLA, the growth estimate was < -0.25. GDAPSRGGQLRAYRTIIIRG was tested, and the growth estimate was < -0.25. With CRFQHS the growth estimate was < -0.25. In the case of TESTGTDGRTSDRGAPQLAQ, the growth estimate is reported as < -0.25. In the case of FFYLWRPNCSFGVDTELVWS, the growth estimate is reported as < -0.25. With SVGIRDSAYWVY the growth estimate was < -0.25. In the case of TRRNQQ, the growth estimate is reported as < -0.25. For LAICYIPSAYKRGLCVQSHF, the growth estimate was < -0.25. With TCFLHLRIFRSRCSLEDFRP the growth estimate was < -0.25. In the case of RIEALGILWSGGVYPRENVG, the growth estimate is reported as < -0.25. GSRGRTM was tested, and the growth estimate was < -0.25. In the case of IKRAI, the growth estimate is reported as < -0.25. With QGGNAWLILTATWET the growth estimate was < -0.25. SYSTSAYWVQKTQHGSSGVM was tested, and the growth estimate was < -0.25. In the case of PESSRNPLLGFWNWEVVYYM, the growth estimate is reported as < -0.25. TLVLINRSSGPGVKEK was tested, and the growth estimate was 0.263. GSWVQEEAHCITAKRCLVTR was tested, and the growth estimate was < -0.25. For KDPSLQSRV, the growth estimate was < -0.25. EDNQDPGVVSVATRKRI was tested, and the growth estimate was < -0.25. For NYGEMKGQRSGPALAGGAAT, the growth estimate was < -0.25. In the case of GYRPLTVTRYLQIMSTSDHR, the growth estimate is reported as < -0.25. In the case of KLPASCCGRLTVELVVF, the growth estimate is reported as < -0.25. For PGTRVKSAKTSMITPLPKD, the growth estimate was < -0.25. With ASPLNPKAFLVHEGARRLFS the growth estimate was < -0.25.
